The values below come from US20160009812A1 (University of Texas, published 2016).

By UniProt entry, the sequences of proteins in these tests, tags left out. Residues count along the entry.
UniProt P08670, residues 2-466: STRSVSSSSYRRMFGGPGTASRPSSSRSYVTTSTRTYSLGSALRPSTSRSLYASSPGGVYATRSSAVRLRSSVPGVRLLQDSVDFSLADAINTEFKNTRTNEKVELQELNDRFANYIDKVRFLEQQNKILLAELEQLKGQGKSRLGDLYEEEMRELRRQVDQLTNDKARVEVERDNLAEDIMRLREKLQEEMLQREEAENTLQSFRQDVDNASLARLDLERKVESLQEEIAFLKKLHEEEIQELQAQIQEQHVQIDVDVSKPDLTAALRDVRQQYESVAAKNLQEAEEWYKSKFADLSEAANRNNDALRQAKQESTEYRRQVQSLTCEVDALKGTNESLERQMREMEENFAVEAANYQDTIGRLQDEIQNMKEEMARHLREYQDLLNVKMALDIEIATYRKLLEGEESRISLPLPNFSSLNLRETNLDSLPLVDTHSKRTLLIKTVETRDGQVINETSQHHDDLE

Results are given in words; binding and its absence hold for the method and conditions named. Some binding calls cover weakened binding; strength is not graded here.

Assay [1] has as its target Recombinant human vimentin (rhVim) with 6-His (R&D Systems) (human) (UniProt P08670). Description: western blot of rhVim.
Assay [2] shares this target. Description: western blot, 10, 100 and 1000 ng rhVim.

B1: 84-1 monoclonal antibody (antibody, V domains shown)
VH: QVQLKQSGPGLVQPSQSLSITCTVSGFSLTRYGVHWVRQSPGKGLEWLGVIWSGGSTDYNAAFISRLSFSKDNSKSQVFFKMNSLQANDTAIYYCARRSYYYAMDYWGQGTSVTVS
VL: DVLMTQTPLSLPVSLGDQASISCRSSQSIVHRIGNTYLEWYLQKPGQSPKLLIYKVSNRFSGVPDRFSGSGSGTDFTLKISRVEAEDLGVYYCFQGSHVPLTFGAGTKLEL
notes: Mouse monoclonal antibody from hybridoma 84-1, raised against rhVim with 6-His; It was detected with anti-mouse IgG; also called 84-1 mAb; 84-1 antibody
On to B1, for which the binding result in assay [1] and in assay [2] was “binds” in each case.
